The values below come from paper doi:10.1101/2021.05.19.443414.

Protein sequences, listed by entry. Tags and fused reporters are not part of them.
UniProt P16892: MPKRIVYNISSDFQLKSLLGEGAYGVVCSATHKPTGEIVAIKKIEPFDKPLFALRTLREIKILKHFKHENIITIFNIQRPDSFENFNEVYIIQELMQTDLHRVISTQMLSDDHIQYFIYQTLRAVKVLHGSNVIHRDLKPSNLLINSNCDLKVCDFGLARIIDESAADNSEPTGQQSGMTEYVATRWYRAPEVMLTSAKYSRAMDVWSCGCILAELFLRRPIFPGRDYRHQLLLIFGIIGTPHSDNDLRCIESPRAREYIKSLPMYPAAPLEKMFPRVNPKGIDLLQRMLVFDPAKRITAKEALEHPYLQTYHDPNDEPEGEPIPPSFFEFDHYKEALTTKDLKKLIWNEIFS

Results are given in words; binding and its absence hold for the method and conditions named. Binding seen in cells or lysates may run through a third protein. Some results given as binding are weak or reduced against the parent protein; the word gives no strength. Tags and fused reporters may be left off the sequences shown.

For this experiment, the target named is T1, Myc-tagged Kel1 (S. cerevisiae) (UniProt P38853).
T1 sequence: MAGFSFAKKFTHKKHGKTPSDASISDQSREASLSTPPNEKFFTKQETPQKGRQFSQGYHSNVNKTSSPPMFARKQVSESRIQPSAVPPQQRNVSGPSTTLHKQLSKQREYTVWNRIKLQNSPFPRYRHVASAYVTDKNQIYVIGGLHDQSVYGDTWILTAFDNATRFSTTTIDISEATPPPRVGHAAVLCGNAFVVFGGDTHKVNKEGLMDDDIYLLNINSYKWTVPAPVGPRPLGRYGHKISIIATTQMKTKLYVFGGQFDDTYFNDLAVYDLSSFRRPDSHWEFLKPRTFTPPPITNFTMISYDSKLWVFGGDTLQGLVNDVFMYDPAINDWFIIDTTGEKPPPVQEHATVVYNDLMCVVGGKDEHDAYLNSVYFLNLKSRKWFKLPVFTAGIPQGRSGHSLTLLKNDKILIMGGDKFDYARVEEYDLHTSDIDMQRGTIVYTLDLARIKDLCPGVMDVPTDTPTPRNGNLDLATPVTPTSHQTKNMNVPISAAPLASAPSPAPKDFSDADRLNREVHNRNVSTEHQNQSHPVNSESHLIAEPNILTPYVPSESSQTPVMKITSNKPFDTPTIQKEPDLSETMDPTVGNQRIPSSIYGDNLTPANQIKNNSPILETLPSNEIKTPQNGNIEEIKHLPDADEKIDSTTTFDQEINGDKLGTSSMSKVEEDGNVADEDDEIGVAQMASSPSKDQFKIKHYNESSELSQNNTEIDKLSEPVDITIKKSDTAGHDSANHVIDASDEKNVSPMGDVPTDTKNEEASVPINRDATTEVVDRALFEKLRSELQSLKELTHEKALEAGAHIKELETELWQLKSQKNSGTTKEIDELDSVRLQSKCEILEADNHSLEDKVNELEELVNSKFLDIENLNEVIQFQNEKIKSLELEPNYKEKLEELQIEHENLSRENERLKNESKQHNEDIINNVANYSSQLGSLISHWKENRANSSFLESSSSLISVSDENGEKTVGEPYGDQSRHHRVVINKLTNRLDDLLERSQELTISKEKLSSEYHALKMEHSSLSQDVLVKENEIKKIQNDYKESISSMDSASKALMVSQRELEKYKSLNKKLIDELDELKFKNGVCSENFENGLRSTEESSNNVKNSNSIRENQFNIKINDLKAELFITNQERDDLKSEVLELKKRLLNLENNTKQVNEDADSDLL
The experiment in a line: co-IP.

Consider “MAPK Fus3 (from UniProt P16892 1-353) (enzyme)”, for which the binding entry is “binds”.

B1: Ste2-GFP (receptor, UniProt D6VTK4 1-431)
chain: MSDAAPSLSNLFYDPTYNPGQSTINYTSIYGNGSTITFDELQGLVNSTVTQAIMFGVRCGAAALTLIVMWMTSRSRKTPIFIINQVSLFLIILHSALYFKYLLSNYSSVTYALTGFPQFISRGDVHVYGATNIIQVLLVASIETSLVFQIKVIFTGDNFKRIGLMLTSISFTLGIATVTMYFVSAVKGMIVTYNDVSATQDKYFNASTILLASSINFMSFVLVVKLILAIRSRRFLGLKQFDSFHILLIMSCQSLLVPSIIFILAYSLKPNQGTDVLTTVATLLAVLSLPLSSMWATAANNASKTNTITSDFTTSTDRFYPGTLSSFQTDSINNDAKSSLRSRLYDLYPRRKETTSDKHSERTFVSETADDIEKNQFYQLPTPTSSKNTRIGPFADASYKEGEVEPVDMYTPDTAADEEARKFWTEDNNNL
On to B1, for which the binding result is “binds”.
